From the supplement of paper PMC10849652
The list shows a part of the results.

Chains of the proteins cited; added tags and fusions are not shown. Lines headed by an entry give the natural chain unless they say otherwise; changes in a name come on top.
UniProt Q13555: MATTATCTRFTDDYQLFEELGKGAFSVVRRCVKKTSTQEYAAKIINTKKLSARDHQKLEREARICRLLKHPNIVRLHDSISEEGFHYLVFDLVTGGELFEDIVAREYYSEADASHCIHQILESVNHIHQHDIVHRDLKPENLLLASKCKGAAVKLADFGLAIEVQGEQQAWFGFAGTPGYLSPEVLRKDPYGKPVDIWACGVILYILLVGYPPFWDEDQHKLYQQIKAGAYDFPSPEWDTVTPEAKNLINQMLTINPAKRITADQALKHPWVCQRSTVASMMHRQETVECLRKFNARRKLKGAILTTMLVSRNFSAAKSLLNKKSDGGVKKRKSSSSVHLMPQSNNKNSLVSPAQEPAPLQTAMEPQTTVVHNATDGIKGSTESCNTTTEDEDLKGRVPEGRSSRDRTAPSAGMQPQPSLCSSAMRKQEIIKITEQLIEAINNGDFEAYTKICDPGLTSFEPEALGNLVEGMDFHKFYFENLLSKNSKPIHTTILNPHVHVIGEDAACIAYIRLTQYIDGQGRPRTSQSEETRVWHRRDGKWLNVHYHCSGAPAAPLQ
UniProt Q5JPI3: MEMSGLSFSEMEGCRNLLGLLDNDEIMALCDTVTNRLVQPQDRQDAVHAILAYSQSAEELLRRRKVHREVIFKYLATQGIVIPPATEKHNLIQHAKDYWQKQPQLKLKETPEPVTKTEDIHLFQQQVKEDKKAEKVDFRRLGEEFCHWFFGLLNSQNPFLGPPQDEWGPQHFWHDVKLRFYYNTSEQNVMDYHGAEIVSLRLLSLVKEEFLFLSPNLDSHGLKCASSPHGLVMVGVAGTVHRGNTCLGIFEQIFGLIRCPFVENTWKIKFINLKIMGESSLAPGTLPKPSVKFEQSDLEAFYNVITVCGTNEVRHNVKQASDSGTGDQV
UniProt Q8N1Q1: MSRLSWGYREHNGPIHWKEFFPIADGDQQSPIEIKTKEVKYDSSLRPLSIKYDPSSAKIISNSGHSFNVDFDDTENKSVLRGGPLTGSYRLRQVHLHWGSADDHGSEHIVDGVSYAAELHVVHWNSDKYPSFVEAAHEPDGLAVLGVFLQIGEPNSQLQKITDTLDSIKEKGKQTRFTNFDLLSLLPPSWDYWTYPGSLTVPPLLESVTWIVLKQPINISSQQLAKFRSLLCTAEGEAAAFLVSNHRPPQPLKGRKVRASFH
UniProt Q8N8R5: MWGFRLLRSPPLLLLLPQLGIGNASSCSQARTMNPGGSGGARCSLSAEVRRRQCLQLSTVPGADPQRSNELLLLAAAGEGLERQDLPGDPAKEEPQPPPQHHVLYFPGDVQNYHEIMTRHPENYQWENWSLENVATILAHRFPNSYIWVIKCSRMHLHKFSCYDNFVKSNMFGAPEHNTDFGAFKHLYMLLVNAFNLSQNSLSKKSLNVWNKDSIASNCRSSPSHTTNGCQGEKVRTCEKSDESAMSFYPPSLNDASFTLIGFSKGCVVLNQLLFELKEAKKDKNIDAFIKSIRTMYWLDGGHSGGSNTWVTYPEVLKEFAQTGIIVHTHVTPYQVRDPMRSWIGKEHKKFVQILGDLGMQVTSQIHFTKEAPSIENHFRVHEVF
UniProt Q5T6V5: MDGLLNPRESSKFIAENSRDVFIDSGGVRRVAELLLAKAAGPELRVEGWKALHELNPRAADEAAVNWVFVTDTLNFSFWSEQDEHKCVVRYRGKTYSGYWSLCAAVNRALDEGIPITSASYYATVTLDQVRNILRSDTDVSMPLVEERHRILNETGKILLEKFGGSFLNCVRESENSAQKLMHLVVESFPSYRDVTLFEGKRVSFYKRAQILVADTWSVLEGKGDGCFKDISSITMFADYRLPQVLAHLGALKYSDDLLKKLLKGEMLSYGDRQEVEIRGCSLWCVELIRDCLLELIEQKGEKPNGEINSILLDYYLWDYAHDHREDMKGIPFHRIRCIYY
UniProt Q9H3J6: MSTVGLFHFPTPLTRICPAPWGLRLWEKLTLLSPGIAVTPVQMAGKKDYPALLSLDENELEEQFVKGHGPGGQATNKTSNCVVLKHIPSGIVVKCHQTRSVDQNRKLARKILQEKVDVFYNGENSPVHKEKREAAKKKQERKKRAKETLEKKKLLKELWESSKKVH
UniProt O43709: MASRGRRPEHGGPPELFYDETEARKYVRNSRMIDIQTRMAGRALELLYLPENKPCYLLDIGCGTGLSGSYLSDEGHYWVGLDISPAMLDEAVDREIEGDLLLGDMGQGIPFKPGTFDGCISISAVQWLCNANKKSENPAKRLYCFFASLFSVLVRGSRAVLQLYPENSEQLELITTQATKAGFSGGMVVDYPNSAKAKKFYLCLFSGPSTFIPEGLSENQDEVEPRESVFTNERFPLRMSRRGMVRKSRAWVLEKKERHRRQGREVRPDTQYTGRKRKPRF
UniProt P07384: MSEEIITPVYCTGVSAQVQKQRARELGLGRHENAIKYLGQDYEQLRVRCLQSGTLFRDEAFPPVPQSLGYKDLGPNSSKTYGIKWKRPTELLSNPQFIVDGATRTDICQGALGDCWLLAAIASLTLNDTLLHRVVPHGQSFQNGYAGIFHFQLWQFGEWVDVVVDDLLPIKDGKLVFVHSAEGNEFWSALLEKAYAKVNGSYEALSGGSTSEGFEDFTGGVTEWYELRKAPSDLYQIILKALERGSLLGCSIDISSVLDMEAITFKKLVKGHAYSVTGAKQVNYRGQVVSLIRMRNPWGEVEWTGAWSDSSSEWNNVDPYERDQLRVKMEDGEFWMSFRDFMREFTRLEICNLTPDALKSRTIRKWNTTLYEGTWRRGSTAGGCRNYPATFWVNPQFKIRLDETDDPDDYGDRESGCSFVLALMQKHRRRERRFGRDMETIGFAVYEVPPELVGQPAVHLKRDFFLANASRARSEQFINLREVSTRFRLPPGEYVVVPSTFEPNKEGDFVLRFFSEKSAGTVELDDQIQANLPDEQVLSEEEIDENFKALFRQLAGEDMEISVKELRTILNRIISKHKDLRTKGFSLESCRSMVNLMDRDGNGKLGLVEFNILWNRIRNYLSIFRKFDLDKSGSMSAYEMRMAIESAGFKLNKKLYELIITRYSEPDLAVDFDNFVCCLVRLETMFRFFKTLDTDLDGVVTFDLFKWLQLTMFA
UniProt Q8IXQ3: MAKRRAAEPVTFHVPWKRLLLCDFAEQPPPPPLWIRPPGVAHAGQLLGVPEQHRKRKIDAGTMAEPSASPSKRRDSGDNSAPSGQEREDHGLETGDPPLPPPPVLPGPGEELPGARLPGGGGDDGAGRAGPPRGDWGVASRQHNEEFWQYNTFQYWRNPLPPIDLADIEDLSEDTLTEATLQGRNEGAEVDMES
UniProt Q96B23: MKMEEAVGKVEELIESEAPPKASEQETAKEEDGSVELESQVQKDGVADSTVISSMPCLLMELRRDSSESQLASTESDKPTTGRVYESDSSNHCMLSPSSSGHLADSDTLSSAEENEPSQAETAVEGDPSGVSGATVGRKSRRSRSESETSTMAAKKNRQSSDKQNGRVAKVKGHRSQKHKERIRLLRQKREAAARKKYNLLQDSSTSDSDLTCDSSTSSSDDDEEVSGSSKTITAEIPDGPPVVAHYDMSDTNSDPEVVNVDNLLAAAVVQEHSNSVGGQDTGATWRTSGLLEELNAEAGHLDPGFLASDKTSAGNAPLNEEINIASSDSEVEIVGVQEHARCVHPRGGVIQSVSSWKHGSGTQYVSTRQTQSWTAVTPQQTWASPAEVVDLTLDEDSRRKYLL
UniProt O43684, whole entry, looked up: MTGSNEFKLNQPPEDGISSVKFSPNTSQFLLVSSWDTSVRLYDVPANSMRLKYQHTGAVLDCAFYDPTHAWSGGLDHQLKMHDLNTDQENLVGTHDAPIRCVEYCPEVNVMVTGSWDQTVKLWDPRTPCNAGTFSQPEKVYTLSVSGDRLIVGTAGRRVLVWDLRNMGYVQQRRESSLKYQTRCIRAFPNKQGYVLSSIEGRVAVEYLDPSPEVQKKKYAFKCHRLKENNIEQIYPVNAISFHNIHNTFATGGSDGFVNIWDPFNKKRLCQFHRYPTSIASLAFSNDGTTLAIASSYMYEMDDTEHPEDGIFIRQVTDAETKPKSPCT
UniProt Q01518, whole entry, looked up: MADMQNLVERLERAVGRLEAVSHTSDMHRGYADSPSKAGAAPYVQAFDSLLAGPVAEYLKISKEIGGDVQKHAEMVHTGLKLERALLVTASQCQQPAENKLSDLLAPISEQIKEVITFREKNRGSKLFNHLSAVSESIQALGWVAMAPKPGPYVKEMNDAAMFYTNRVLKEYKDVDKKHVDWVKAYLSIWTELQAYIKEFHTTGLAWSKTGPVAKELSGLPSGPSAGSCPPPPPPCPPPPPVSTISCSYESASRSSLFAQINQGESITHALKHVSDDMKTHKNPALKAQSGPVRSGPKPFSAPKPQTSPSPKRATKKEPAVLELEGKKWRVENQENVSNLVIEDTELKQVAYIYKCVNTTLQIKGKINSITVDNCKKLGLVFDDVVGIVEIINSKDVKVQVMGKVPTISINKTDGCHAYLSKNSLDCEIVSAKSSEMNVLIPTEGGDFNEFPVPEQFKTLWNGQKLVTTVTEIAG
UniProt O00478: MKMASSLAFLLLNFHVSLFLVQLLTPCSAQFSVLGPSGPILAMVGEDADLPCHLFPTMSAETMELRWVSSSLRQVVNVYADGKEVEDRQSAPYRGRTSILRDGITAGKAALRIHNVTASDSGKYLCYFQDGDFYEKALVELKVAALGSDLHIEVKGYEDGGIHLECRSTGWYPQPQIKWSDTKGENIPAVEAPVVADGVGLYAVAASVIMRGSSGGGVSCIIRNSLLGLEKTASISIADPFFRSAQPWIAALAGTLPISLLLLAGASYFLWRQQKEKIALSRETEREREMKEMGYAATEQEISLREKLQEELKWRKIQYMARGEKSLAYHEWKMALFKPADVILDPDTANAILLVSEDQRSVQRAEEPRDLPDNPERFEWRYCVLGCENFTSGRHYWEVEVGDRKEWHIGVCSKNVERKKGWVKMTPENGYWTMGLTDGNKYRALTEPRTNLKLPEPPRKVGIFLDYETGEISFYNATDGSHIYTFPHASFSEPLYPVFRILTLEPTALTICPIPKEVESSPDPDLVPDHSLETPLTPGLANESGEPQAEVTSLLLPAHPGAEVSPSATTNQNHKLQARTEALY
UniProt Q9H0W9: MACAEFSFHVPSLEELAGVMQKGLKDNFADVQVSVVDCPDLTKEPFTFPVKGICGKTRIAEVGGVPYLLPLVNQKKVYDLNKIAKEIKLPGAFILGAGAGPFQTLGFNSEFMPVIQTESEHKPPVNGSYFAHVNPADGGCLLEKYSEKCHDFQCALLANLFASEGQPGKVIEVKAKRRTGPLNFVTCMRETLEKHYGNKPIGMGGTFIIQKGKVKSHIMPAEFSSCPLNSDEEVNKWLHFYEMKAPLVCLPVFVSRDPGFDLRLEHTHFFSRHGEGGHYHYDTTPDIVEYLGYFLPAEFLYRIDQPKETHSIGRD
UniProt Q9UFG5: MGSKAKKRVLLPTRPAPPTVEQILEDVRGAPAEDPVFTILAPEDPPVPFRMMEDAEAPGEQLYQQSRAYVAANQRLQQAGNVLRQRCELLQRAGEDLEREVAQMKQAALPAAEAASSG
UniProt Q9H9S4: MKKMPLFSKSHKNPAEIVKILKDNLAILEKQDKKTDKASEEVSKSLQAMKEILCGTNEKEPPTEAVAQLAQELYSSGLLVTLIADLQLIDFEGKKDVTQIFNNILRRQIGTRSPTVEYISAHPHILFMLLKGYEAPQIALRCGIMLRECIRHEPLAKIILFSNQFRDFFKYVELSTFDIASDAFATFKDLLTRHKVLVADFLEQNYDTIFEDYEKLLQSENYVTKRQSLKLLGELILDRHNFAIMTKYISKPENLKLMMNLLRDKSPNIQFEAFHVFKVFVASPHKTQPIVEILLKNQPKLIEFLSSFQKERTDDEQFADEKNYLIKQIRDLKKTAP
UniProt Q9Y426: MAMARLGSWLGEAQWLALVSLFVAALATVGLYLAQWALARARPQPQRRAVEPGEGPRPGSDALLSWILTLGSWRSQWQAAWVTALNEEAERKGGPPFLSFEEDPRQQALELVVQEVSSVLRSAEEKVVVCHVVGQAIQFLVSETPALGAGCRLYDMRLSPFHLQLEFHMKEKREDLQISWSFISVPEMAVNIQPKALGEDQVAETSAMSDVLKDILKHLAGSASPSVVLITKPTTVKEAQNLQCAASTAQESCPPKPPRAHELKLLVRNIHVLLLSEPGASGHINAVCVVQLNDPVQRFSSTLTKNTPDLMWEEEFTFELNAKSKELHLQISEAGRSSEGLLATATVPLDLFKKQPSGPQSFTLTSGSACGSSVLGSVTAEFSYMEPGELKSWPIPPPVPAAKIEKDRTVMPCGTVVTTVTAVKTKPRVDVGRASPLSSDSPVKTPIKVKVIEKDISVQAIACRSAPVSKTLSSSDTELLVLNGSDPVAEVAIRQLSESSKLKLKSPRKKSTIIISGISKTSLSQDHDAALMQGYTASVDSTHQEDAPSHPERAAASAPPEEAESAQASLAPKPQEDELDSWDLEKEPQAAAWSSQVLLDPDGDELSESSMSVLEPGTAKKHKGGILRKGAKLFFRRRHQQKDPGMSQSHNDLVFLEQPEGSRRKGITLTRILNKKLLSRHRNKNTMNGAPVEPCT

Compound: c1ccc([C@@H]2C[C@H]2NC2CCNCC2)cc1
Experiment: log2 fold change, soluble protein after heating vs DMSO (PISA); higher = thermal stabilisation; K562 lysate, 10 uM; active = over 0.2 and 3.5 SD of the protein, either way, in both replicates (recomputed)
How it was run: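 Values give the log-two fold change in thermal stability against solvent controls, from duplicates. Crude K562 extract at 1 mg/mL protein, made by dounce homogenisation in PBS pH 7.4 with 1 mM MgCl2, was treated with 10 μM compound for 30 min. After 3 min heating across 48°C-58°C, aliquots were pooled, adjusted to 0.5% NP-40 at 4°C and centrifuged at 21,000xg for 90 min. The supernatant was measured by TMTpro 16plex LC-MS/MS with channel sums equalised.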

Target	log2 fold change
CAPZA1 (UniProt P52907)	inactive: -0.022
C6orf120 (UniProt Q7Z4R8)	inactive: 0.137
CAMK2G isoform 8 (UniProt Q13555)	inactive: -0.037
C15orf41 (UniProt Q9Y2V0)	inactive: -0.008
CAB39 (UniProt Q9Y376)	inactive: 0.015
CAPRIN1 (UniProt Q14444)	inactive: 0.047
C2orf76 (UniProt Q3KRA6)	inactive: 0.015
C3orf38 (UniProt Q5JPI3)	inactive: 0.061
CALB1 (UniProt P05937)	inactive: 0.044
C1orf50 (UniProt Q9BV19)	inactive: 0.041
C20orf27 isoform 2 (UniProt Q9GZN8)	inactive: 0.043
C1GALT1C1 (UniProt Q96EU7)	inactive: -0.058
CALCOCO2 isoform 4 (UniProt Q13137)	inactive: -0.021
CA13 (UniProt Q8N1Q1)	inactive: -0.023
C2orf69 (UniProt Q8N8R5)	inactive: -0.022
C9orf64 (UniProt Q5T6V5)	inactive: 0.01
C18orf21 (UniProt Q32NC0)	inactive: 0.023
BUB1 (UniProt O43683)	inactive: -0.13
CAMK2B (UniProt Q13554)	inactive: -0.091
C12orf65 (UniProt Q9H3J6)	inactive: -0.019

3 entries from above, with bars between the fields:
Target | log2 fold change
C18orf21 (UniProt Q32NC0) | inactive: 0.023
BUB1 (UniProt O43683) | inactive: -0.13
CAMK2B (UniProt Q13554) | inactive: -0.091

(list continues)

Target	log2 fold change
C4A (UniProt P0C0L4)	inactive: -0.066
C12orf73 (UniProt Q69YU5)	inactive: -0.057
BUD23 isoform 3 (UniProt O43709)	inactive: -0.154
CALU isoform 4 (UniProt O43852)	inactive: -0.001
CAPN1 (UniProt P07384)	inactive: -0.022
C9orf40 (UniProt Q8IXQ3)	inactive: -0.031
C18orf25 (UniProt Q96B23)	inactive: -0.033
BTRC (UniProt Q9Y297)	inactive: -0.048
BUB3 (UniProt O43684)	inactive: -0.002
CAP1 isoform 2 (UniProt Q01518)	inactive: -0.002
BTN3A3 (UniProt O00478)	inactive: 0.12
CARD11 (UniProt Q9BXL7)	inactive: -0.019
C3 (UniProt P01024)	inactive: -0.03
C11orf54 (UniProt Q9H0W9)	inactive: -0.016
C17orf75 (UniProt Q9HAS0)	inactive: -0.02
C19orf25 (UniProt Q9UFG5)	inactive: 0.033
CAB39L (UniProt Q9H9S4)	inactive: 0.074
C2CD2 (UniProt Q9Y426)	inactive: 0.086
C11orf96 (UniProt Q7Z7L8)	inactive: 0.031
